Reference: the supplement of paper PMC8728848
This is one part of the list.

Assays:
Experiment in all cases: glycan array binding signal (z-score within array); higher = stronger binding
Conditions in all cases: glycan notation: IUPAC condensed, linker removed
[1] = biological target: Gal(b1-4)GlcNAc(b1-3)Gal(b1-4)Glc
Summary of the method: (§1)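 Glycan array binding is given as a within-array Z-score, which can be read as non-binding when negative. The arrays, 3228 of them, came from the Consortium for Functional Glycomics database and were retained only where the protein sequence was available. Z-scores were averaged across arrays of the same protein sequence at different concentrations or buffers and across linkers.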

[2] = biological target: Gal(b1-4)GlcNAc(b1-3)Gal(b1-4)GlcNAc
Summary of the method: as §1

[3] = biological target: Gal(b1-4)GlcNAc(b1-3)Gal(b1-4)GlcNAc(b1-2)Man(a1-3)[Gal(b1-4)GlcNAc(b1-3)Gal(b1-4)GlcNAc(b1-2)Man(a1-6)]Man(b1-4)GlcNAc(b1-4)GlcNAc
Summary of the method: as §1

[4] = biological target: Gal(b1-4)GlcNAc(b1-3)Gal(b1-4)GlcNAc(b1-2)Man(a1-3)[Gal(b1-4)GlcNAc(b1-3)Gal(b1-4)GlcNAc(b1-2)Man(a1-6)]Man(b1-4)GlcNAc(b1-4)[Fuc(a1-6)]GlcNAc
Summary of the method: as §1

[5] = biological target: Gal(b1-4)GlcNAc(b1-3)Gal(b1-4)GlcNAc(b1-2)[Gal(b1-4)GlcNAc(b1-3)Gal(b1-4)GlcNAc(b1-6)]Man(a1-6)[Gal(b1-4)GlcNAc(b1-3)Gal(b1-4)GlcNAc(b1-2)Man(a1-3)]Man(b1-4)GlcNAc(b1-4)GlcNAc
Summary of the method: as §1

[6] = biological target: Gal(b1-4)GlcNAc(b1-3)Gal(b1-4)GlcNAc(b1-2)[Gal(b1-4)GlcNAc(b1-3)Gal(b1-4)GlcNAc(b1-6)]Man(a1-6)[Gal(b1-4)GlcNAc(b1-3)Gal(b1-4)GlcNAc(b1-2)Man(a1-3)]Man(b1-4)GlcNAc(b1-4)[Fuc(a1-6)]GlcNAc
Summary of the method: as §1

[7] = biological target: Gal(b1-4)GlcNAc(b1-3)Gal(b1-4)GlcNAc(b1-3)Gal(b1-4)GlcNAc
Summary of the method: as §1

[8] = biological target: Gal(b1-4)GlcNAc(b1-3)Gal(b1-4)GlcNAc(b1-3)Gal(b1-4)GlcNAc(b1-2)Man(a1-3)[Gal(b1-4)GlcNAc(b1-3)Gal(b1-4)GlcNAc(b1-3)Gal(b1-4)GlcNAc(b1-2)Man(a1-6)]Man(b1-4)GlcNAc(b1-4)GlcNAc
Summary of the method: as §1

[9] = biological target: Gal(b1-4)GlcNAc(b1-3)Gal(b1-4)GlcNAc(b1-3)Gal(b1-4)GlcNAc(b1-2)Man(a1-3)[Gal(b1-4)GlcNAc(b1-3)Gal(b1-4)GlcNAc(b1-3)Gal(b1-4)GlcNAc(b1-2)Man(a1-6)]Man(b1-4)GlcNAc(b1-4)[Fuc(a1-6)]GlcNAc
Summary of the method: as §1

[10] = biological target: Gal(b1-4)GlcNAc(b1-3)Gal(b1-4)GlcNAc(b1-3)Gal(b1-4)GlcNAc(b1-2)[Gal(b1-4)GlcNAc(b1-3)Gal(b1-4)GlcNAc(b1-3)Gal(b1-4)GlcNAc(b1-6)]Man(a1-6)[Gal(b1-4)GlcNAc(b1-3)Gal(b1-4)GlcNAc(b1-3)Gal(b1-4)GlcNAc(b1-2)Man(a1-3)]Man(b1-4)GlcNAc(b1-4)[Fuc(a1-6)]GlcNAc
Summary of the method: as §1

[11] = biological target: Gal(b1-4)GlcNAc(b1-3)Gal(b1-4)GlcNAc(b1-3)Gal(b1-4)GlcNAc(b1-3)Gal(b1-4)GlcNAc(b1-2)Man(a1-3)[Gal(b1-4)GlcNAc(b1-3)Gal(b1-4)GlcNAc(b1-3)Gal(b1-4)GlcNAc(b1-3)Gal(b1-4)GlcNAc(b1-2)Man(a1-6)]Man(b1-4)GlcNAc(b1-4)GlcNAc
Summary of the method: as §1

[12] = biological target: Gal(b1-4)GlcNAc(b1-3)Gal(b1-4)GlcNAc(b1-3)Gal(b1-4)GlcNAc(b1-3)Gal(b1-4)GlcNAc(b1-2)Man(a1-3)[Gal(b1-4)GlcNAc(b1-3)Gal(b1-4)GlcNAc(b1-3)Gal(b1-4)GlcNAc(b1-3)Gal(b1-4)GlcNAc(b1-2)Man(a1-6)]Man(b1-4)GlcNAc(b1-4)[Fuc(a1-6)]GlcNAc
Summary of the method: as §1

[13] = biological target: Gal(b1-4)GlcNAc(b1-3)Gal(b1-4)GlcNAc(b1-3)Gal(b1-4)GlcNAc(b1-3)Gal(b1-4)GlcNAc(b1-2)[Gal(b1-4)GlcNAc(b1-3)Gal(b1-4)GlcNAc(b1-3)Gal(b1-4)GlcNAc(b1-3)Gal(b1-4)GlcNAc(b1-6)]Man(a1-6)[Gal(b1-4)GlcNAc(b1-3)Gal(b1-4)GlcNAc(b1-3)Gal(b1-4)GlcNAc(b1-3)Gal(b1-4)GlcNAc(b1-2)Man(a1-3)]Man(b1-4)GlcNAc(b1-4)[Fuc(a1-6)]GlcNAc
Summary of the method: as §1

[14] = biological target: Gal(b1-4)GlcNAc(b1-3)Gal(b1-4)GlcNAc(b1-3)Gal(b1-4)GlcNAc(b1-3)Gal(b1-4)GlcNAc(b1-3)Gal(b1-4)GlcNAc(b1-2)Man(a1-3)[Gal(b1-4)GlcNAc(b1-3)Gal(b1-4)GlcNAc(b1-3)Gal(b1-4)GlcNAc(b1-3)Gal(b1-4)GlcNAc(b1-3)Gal(b1-4)GlcNAc(b1-2)Man(a1-6)]Man(b1-4)GlcNAc(b1-4)GlcNAc
Summary of the method: as §1

[15] = biological target: Gal(b1-4)GlcNAc(b1-3)Gal(b1-4)GlcNAc(b1-3)Gal(b1-4)GlcNAc(b1-3)Gal(b1-4)GlcNAc(b1-3)Gal(b1-4)GlcNAc(b1-2)Man(a1-3)[Gal(b1-4)GlcNAc(b1-3)Gal(b1-4)GlcNAc(b1-3)Gal(b1-4)GlcNAc(b1-3)Gal(b1-4)GlcNAc(b1-3)Gal(b1-4)GlcNAc(b1-2)Man(a1-6)]Man(b1-4)GlcNAc(b1-4)[Fuc(a1-6)]GlcNAc
Summary of the method: as §1

[16] = biological target: Gal(b1-4)GlcNAc(b1-3)Gal(b1-4)GlcNAc(b1-3)Gal(b1-4)GlcNAc(b1-3)Gal(b1-4)GlcNAc(b1-3)Gal(b1-4)GlcNAc(b1-2)[Gal(b1-4)GlcNAc(b1-3)Gal(b1-4)GlcNAc(b1-3)Gal(b1-4)GlcNAc(b1-3)Gal(b1-4)GlcNAc(b1-3)Gal(b1-4)GlcNAc(b1-6)]Man(a1-6)[Gal(b1-4)GlcNAc(b1-3)Gal(b1-4)GlcNAc(b1-3)Gal(b1-4)GlcNAc(b1-3)Gal(b1-4)GlcNAc(b1-3)Gal(b1-4)GlcNAc(b1-2)Man(a1-3)]Man(b1-4)GlcNAc(b1-4)[Fuc(a1-6)]GlcNAc
Summary of the method: as §1

[17] = biological target: Gal(b1-4)GlcNAc(b1-3)Gal(b1-4)GlcNAc(b1-3)Gal(b1-4)GlcNAc(b1-3)Gal(b1-4)GlcNAc(b1-3)Gal(b1-4)GlcNAc(b1-3)Gal(b1-4)GlcNAc(b1-2)Man(a1-3)[Gal(b1-4)GlcNAc(b1-3)Gal(b1-4)GlcNAc(b1-3)Gal(b1-4)GlcNAc(b1-3)Gal(b1-4)GlcNAc(b1-3)Gal(b1-4)GlcNAc(b1-3)Gal(b1-4)GlcNAc(b1-2)Man(a1-6)]Man(b1-4)GlcNAc(b1-4)GlcNAc
Summary of the method: as §1

[18] = biological target: Gal(b1-4)GlcNAc(b1-3)Gal(b1-4)GlcNAc(b1-3)GalNAc
Summary of the method: as §1

[19] = biological target: Gal(b1-4)GlcNAc(b1-3)Gal(b1-4)GlcNAc(b1-3)[Gal(b1-4)GlcNAc(b1-3)Gal(b1-4)GlcNAc(b1-6)]GalNAc
Summary of the method: as §1

B1: GS7807G-bfa-506-18-506 (Bacteroides fragilis) (protein)
chain: ASCDKFDEINTDPDATTKVTSSLLATGLLLDITSSSASKSFIYDELLAKQMAWGESMEDYQYNVFGRSGFGGYTTLINAQKMVESVSDDNVNAYDGLAHFIKAYKIFYMSMEMGDLPYEEALQGELGLVRPKYNTQKEVMNFILSDLETAYELFSTAKDFDGDPILGGSISKWKKATTAFQLKVLMHLSKKESDADLKVKERFARIVASGSLMESNEDNLQMKYADKANTVYPFHNTNTKHAGYAMLSTMLIDKFKATGDIRMFYYAKPAKAKLNEGVTADSWDAYIGTDPSLPFEQIEKAYATEQYSGFNARYTDYPSGEPVVRLGYAEQNFILAEAAVRGWISGDASAYYKKAIRAHMEFIASNTPDEEVYHHGHPITEEAIAAFLETPAIQLSGEKEEDIEKILTQRYLASFMQHPYDVYYDYRRTGYPVLPINPATNRNTMNDRLPMRWMYPKSESDYNLEHQNEALERQFGGVDDVNKLMWILQ
B1 was tested, and the “glycan array binding signal (z-score)” value [1] was 0.624, the “glycan array binding signal (z-score)” value [2] was -0.301 and the “glycan array binding signal (z-score)” value [3] was 0.789. For the same binder, the “glycan array binding signal (z-score)” value [4] was 2.64, the “glycan array binding signal (z-score)” value [5] was 1.76 and the “glycan array binding signal (z-score)” value [6] was 1.31. The “glycan array binding signal (z-score)” value [7] was 0.029, the “glycan array binding signal (z-score)” value [8] was 2.64 and the “glycan array binding signal (z-score)” value [9] was 5.99. For the same binder, the “glycan array binding signal (z-score)” value [10] was 2.78, the “glycan array binding signal (z-score)” value [11] was 2.25 and the “glycan array binding signal (z-score)” value [12] was 2.3. For the same binder, the “glycan array binding signal (z-score)” value [13] was 1.5, the “glycan array binding signal (z-score)” value [14] was 0.719 and the “glycan array binding signal (z-score)” value [15] was 1.55. For the same binder, the “glycan array binding signal (z-score)” value [16] was 4.67, the “glycan array binding signal (z-score)” value [17] was 2.54 and the “glycan array binding signal (z-score)” value [18] was 0.91. The “glycan array binding signal (z-score)” value [19] was 0.328.
